Source: the supplement of paper PMC12595434, “Development of retinoid nuclear receptor pathway antagonists through targeting aldehyde dehydrogenase 1A3” (iScience, 2025)
This is one part of the list. This is a noisy data set.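 Tm was set to 64 °C where no melting was found, and many curves are irregular.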

Chains of the proteins cited; added tags and fusions are not shown. Lines headed by an entry give the natural chain unless they say otherwise; changes in a name come on top.
UniProt Q8TDJ6, whole entry: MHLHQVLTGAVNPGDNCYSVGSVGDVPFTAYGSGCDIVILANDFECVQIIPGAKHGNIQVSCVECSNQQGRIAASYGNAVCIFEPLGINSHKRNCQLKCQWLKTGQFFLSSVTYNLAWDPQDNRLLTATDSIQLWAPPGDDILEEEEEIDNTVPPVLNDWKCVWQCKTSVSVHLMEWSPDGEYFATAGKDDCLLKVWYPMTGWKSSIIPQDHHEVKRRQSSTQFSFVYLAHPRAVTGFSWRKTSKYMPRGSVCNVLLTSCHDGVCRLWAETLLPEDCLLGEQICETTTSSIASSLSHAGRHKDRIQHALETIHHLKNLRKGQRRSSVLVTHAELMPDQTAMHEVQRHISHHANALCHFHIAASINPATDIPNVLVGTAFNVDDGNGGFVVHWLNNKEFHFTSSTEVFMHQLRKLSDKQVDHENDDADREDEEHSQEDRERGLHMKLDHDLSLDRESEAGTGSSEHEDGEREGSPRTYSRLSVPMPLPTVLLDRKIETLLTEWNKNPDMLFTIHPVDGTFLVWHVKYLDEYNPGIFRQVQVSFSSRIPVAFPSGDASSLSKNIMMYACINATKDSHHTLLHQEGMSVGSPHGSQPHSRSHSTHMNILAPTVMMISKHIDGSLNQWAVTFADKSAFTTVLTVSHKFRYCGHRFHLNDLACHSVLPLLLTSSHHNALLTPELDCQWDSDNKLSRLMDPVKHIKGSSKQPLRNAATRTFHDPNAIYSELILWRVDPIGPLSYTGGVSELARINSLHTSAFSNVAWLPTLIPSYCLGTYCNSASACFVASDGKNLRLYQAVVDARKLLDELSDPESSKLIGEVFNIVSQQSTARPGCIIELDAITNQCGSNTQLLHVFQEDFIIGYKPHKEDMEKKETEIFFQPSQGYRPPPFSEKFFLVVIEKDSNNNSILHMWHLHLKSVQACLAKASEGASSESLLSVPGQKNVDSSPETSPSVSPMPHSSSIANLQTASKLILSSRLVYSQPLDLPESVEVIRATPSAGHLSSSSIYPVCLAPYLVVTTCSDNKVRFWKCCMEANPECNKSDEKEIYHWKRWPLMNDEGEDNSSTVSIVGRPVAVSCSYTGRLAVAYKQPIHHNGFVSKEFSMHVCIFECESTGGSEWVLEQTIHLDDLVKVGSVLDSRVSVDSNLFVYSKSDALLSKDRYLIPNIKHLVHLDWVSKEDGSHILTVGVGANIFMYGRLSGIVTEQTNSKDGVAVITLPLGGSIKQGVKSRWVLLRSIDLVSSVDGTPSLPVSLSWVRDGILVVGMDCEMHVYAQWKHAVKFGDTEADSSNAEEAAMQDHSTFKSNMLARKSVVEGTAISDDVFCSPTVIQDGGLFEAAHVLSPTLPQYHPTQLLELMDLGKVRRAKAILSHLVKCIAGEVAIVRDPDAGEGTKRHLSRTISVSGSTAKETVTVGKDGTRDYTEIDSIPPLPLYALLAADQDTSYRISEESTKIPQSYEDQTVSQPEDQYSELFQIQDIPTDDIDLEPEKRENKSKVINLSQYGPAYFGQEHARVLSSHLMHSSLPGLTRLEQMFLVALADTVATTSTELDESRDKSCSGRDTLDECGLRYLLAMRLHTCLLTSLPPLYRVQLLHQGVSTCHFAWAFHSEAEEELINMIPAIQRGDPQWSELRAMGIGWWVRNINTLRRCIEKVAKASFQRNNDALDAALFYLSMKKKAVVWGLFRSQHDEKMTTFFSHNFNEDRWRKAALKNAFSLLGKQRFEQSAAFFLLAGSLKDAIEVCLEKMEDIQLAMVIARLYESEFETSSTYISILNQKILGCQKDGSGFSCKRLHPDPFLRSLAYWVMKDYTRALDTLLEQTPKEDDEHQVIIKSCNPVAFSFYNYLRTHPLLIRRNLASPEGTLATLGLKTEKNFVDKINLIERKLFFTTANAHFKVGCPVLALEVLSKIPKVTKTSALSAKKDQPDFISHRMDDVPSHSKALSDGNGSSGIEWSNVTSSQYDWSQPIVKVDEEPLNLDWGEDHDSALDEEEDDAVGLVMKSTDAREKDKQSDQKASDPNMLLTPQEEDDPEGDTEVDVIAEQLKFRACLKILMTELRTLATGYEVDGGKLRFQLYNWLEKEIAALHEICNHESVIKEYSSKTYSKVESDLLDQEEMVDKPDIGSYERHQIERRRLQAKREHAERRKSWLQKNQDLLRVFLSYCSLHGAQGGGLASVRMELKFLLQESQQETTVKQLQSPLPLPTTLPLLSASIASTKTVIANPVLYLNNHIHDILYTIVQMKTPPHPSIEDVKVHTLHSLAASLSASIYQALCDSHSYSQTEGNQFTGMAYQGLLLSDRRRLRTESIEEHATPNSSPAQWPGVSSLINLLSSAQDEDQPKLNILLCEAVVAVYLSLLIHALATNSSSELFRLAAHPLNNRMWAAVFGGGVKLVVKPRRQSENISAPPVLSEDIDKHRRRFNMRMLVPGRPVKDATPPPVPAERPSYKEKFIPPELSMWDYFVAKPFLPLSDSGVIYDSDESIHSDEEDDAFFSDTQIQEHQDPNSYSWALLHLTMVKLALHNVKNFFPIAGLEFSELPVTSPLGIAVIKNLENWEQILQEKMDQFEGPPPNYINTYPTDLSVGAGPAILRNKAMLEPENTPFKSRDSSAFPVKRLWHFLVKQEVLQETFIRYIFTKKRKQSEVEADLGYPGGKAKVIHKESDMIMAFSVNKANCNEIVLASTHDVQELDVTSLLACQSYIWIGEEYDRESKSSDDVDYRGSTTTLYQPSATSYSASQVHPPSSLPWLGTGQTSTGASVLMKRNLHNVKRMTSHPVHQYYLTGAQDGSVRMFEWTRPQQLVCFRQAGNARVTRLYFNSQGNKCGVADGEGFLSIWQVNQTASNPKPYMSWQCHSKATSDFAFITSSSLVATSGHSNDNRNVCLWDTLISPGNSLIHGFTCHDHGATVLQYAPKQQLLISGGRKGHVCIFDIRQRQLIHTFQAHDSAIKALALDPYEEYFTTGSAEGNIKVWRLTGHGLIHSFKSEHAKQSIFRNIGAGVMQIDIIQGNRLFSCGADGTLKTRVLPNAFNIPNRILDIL
UniProt Q8TF72: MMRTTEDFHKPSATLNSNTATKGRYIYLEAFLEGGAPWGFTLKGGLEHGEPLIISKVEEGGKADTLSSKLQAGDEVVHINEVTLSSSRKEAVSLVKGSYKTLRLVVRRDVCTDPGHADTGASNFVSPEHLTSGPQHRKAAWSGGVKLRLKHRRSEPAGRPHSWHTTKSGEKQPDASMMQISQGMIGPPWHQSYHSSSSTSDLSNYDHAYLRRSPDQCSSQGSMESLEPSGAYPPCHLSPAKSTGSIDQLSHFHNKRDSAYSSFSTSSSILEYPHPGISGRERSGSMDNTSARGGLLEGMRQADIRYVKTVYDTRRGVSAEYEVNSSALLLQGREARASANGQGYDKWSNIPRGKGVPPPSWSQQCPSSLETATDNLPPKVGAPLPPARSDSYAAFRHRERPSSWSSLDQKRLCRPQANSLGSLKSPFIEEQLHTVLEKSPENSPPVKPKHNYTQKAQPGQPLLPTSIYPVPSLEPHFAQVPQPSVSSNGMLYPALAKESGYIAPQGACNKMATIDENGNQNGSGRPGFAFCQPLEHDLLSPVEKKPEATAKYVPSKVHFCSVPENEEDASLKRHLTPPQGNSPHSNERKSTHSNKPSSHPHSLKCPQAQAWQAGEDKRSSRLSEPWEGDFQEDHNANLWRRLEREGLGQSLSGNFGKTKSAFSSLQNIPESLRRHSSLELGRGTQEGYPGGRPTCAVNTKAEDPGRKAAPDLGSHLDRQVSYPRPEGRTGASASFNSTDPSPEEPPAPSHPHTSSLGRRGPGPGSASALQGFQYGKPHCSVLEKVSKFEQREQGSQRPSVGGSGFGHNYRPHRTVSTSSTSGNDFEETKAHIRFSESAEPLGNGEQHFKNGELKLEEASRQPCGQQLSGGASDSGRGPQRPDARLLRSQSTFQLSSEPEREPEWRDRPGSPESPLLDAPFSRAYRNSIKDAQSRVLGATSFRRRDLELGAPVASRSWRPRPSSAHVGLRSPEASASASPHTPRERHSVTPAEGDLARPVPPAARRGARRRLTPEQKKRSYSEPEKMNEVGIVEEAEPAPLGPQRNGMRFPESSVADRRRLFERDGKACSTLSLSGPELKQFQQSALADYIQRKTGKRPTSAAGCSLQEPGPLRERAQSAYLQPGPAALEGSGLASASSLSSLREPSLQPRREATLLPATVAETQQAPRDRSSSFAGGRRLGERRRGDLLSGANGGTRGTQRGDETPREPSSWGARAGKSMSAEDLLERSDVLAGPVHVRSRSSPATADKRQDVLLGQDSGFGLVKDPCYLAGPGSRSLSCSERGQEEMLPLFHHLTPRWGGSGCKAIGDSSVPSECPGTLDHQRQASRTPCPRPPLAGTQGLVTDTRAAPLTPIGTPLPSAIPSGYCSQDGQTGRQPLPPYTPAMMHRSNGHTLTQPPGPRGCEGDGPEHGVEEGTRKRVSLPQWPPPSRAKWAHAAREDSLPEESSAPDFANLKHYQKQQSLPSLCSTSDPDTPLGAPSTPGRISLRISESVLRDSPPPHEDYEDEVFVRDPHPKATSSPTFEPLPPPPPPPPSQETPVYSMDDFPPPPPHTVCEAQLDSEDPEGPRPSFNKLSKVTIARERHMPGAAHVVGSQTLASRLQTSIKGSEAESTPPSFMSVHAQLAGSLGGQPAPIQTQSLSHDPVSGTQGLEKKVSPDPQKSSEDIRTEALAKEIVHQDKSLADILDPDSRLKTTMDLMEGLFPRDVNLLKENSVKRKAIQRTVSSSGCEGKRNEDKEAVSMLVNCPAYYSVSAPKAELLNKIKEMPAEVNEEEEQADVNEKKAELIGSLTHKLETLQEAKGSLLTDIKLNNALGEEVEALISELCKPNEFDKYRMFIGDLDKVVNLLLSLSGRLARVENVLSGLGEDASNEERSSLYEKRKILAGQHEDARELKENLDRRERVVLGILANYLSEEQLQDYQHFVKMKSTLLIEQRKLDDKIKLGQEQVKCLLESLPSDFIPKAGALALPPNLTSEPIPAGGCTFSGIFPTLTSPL
UniProt Q8NCC3: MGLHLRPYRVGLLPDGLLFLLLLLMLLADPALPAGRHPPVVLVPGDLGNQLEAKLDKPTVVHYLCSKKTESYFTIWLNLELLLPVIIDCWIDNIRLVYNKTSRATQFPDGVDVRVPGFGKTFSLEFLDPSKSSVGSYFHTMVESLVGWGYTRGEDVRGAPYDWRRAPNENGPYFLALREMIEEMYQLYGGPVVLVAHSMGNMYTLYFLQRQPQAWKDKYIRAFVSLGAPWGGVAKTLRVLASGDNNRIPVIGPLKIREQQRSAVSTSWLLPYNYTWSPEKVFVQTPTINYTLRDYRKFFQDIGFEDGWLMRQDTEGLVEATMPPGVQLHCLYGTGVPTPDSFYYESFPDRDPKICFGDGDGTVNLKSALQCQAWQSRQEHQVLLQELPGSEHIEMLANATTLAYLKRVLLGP
UniProt Q8TCA0: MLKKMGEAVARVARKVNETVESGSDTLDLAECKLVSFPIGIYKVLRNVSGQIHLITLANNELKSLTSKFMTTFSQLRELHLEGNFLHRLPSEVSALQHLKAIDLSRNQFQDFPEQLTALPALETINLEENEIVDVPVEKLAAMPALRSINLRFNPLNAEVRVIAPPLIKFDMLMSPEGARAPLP
UniProt Q8TF05: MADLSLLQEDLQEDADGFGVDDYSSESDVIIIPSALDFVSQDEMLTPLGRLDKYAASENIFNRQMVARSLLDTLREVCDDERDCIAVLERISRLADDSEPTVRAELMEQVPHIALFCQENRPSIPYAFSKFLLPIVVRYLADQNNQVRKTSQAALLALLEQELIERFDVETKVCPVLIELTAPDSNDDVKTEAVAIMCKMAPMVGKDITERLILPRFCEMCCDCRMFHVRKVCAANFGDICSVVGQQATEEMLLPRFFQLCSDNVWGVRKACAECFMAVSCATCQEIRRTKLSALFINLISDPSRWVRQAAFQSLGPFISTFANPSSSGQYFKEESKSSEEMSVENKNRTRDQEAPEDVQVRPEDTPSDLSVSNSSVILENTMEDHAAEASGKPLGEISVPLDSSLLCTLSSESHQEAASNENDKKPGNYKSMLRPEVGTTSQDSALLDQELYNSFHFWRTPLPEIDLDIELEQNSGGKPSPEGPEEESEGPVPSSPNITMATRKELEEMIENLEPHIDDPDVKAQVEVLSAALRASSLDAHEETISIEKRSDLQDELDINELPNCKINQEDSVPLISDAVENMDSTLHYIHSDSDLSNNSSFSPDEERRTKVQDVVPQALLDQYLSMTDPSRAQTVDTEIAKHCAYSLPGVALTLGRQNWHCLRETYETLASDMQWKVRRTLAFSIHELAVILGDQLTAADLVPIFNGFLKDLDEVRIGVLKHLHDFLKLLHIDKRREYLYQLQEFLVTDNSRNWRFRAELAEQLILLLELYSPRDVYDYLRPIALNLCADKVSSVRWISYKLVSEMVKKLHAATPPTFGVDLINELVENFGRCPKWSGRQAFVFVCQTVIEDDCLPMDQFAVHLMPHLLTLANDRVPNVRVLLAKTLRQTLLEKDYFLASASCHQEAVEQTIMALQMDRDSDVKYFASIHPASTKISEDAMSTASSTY

Compound: CCc1cnccc1C(=O)Nc1cc2c(cc1F)NC(=O)CC2
Assay: melting temperature shift (DMSO Tm minus MBE1-treated Tm) in cellular thermal proteome profiling; higher = less thermal stabilization by MBE1 (negative = stabilized by MBE1)
Details: A375

Target	melting temperature shift (MBE1 concentration: 1 uM) [°C]	melting temperature shift (MBE1 concentration: 100 nM) [°C]
PCNP (UniProt Q8WW12)	-2.8	
UniProt Q8WUY3	0.966	
DMXL2 (UniProt Q8TDJ6)	-2.05	-1.49
UniProt Q8WUJ1	0.861	
UniProt Q8N9E0	-3.62	
MRPL43 (UniProt Q8N983)	6.89	0.0488
B3GALNT2 (UniProt Q8NCR0)	-4.51	
NUP133 (UniProt Q8WUM0)	0.635	1.47
DCAKD (UniProt Q8WVC6)	0.108	-0.216
ENGASE (UniProt Q8NFI3)	-0.657	-0.858
NSUN6 (UniProt Q8TEA1)	-0.183	-0.55
UniProt Q8NHS3	2.37	-0.49
THOC2 (UniProt Q8NI27)	-0.335	-0.734
UniProt Q8WUB2		-1.64
SETD7 (UniProt Q8WTS6)	0.174	-0.974
UniProt Q8TB24		-0.216
UniProt Q8TF72	-1.81	-4.67
UniProt Q8NFZ8	-2.73	
SHCBP1 (UniProt Q8NEM2)	0.22	0.44
PNISR (UniProt Q8TF01)	-3.15	
PTPMT1 (UniProt Q8WUK0)	1.38	-0.055
PLA2G15 (UniProt Q8NCC3)	-2.93	
GEMIN5 (UniProt Q8TEQ6)	0.0916	0.415
TRAPPC12 (UniProt Q8WVT3)	-0.281	1.01

Target	melting temperature shift (MBE1 concentration: 1 uM) [°C]	melting temperature shift (MBE1 concentration: 100 nM) [°C]
ZNF579 (UniProt Q8NAF0)	-0.0939	-0.557
NCOA7 (UniProt Q8NI08)	-0.543	1.01
SHKBP1 (UniProt Q8TBC3)	-1.85	-2.47
UniProt Q8TD43		0.248
SNRNP27 (UniProt Q8WVK2)	-1.72	-2.51
TGFBRAP1 (UniProt Q8WUH2)	-0.221	-0.0847
LRRC57 (UniProt Q8N9N7)	-0.0201	-0.617
CHAC2 (UniProt Q8WUX2)	0.121	-0.637
UniProt Q8NFQ8	0.738	-0.939
DDX55 (UniProt Q8NHQ9)	0.64	-1.25
UniProt Q8TCT8	2.39	
UniProt Q8NB25	-0.181	0.181
DNAJB14 (UniProt Q8TBM8)	-0.372	-0.263
CNNM3 (UniProt Q8NE01)	0.464	-0.288
UniProt Q8NEZ4	0.355	-0.469
TMEM87A (UniProt Q8NBN3)	-2.92	-2.31
UniProt Q8NFD5	-0.34	-0.301
UBASH3B (UniProt Q8TF42)	-0.715	-1.2
UniProt Q8WVS4	0.623	1.37
RDH11 (UniProt Q8TC12)	-0.458	-0.605
NPLOC4 (UniProt Q8TAT6)	0.488	-0.311
USP33 (UniProt Q8TEY7)	-0.739	-1.43
UniProt Q8NC54	-3.93	-4.35
UniProt Q8NFP9	0.904	-0.624

Target	melting temperature shift (MBE1 concentration: 1 uM) [°C]	melting temperature shift (MBE1 concentration: 100 nM) [°C]
SLC35B2 (UniProt Q8TB61)	-1.1	-0.527
EHBP1 (UniProt Q8NDI1)	-0.88	-1.19
TBC1D15 (UniProt Q8TC07)	-0.165	0.0977
NEDD1 (UniProt Q8NHV4)	1.01	-0.51
TNRC6A (UniProt Q8NDV7)	-2.9	-1.42
DENND1A (UniProt Q8TEH3)	-0.047	-0.16
TTC13 (UniProt Q8NBP0)	0.0488	-0.202
WDR19 (UniProt Q8NEZ3)	-0.301	-1.47
SMAP2 (UniProt Q8WU79)	-0.988	-0.984
CACTIN (UniProt Q8WUQ7)	-0.488	0.0733
PLEKHO2 (UniProt Q8TD55)	0.653	1.78
ATP11C (UniProt Q8NB49)	0.58	-0.464
CEP76 (UniProt Q8TAP6)	1.71	-1.04
GPATCH11 (UniProt Q8N954)	-0.11	0.055
UniProt Q8NBW4	0	-0.705
UniProt Q8NA72	0.993	-1.99
UniProt Q8TCT7	1.01	-1.01
UniProt Q8WVL7	0.452	-0.328
ANKRD52 (UniProt Q8NB46)	-0.442	-0.433
UniProt Q8ND82	0.946	0.983
PARD3 (UniProt Q8TEW0)	-0.629	-0.592
UniProt Q8TBP6	0.238	-2.49
NIPA2 (UniProt Q8N8Q9)	0.124	-0.754
UniProt Q8NBR6	0.324	0.58

Target	melting temperature shift (MBE1 concentration: 1 uM) [°C]	melting temperature shift (MBE1 concentration: 100 nM) [°C]
UniProt Q8WTR2	-1.09	-0.611
COG1 (UniProt Q8WTW3)	-0.725	-1.18
STT3B (UniProt Q8TCJ2)	-0.215	-1.12
UniProt Q8TCA0	-1.09	-1.84
LPCAT1 (UniProt Q8NF37)	0.617	-0.637
CDC26 (UniProt Q8NHZ8)	-0.589	-11.6
GALNT6 (UniProt Q8NCL4)	0.0366	-0.456
PRPF38A (UniProt Q8NAV1)	-0.0794	1.25
UBLCP1 (UniProt Q8WVY7)	0.171	-0.244
UXS1 (UniProt Q8NBZ7)	-0.201	-3.92
UniProt Q8WVF1	0.33	0.421
UniProt Q8NEJ9	-0.25	0.115
PPP4R1 (UniProt Q8TF05)	-0.238	0.556
PIGO (UniProt Q8TEQ8)	0.464	-0.406
NECAP1 (UniProt Q8NC96)	-0.483	-0.63
SPATA5 (UniProt Q8NB90)	-0.235	-0.637
TMEM263 (UniProt Q8WUH6)	0.91	-0.843
UniProt Q8TEU7	-0.532	-0.766
UniProt Q8WVZ9	0.721	0.708
UniProt Q8N8R5	-0.818	-1.32
NUP43 (UniProt Q8NFH3)	0.0183	-3.09
UniProt Q8TEQ0	-1.03	0.221
UniProt Q8TBZ3	-0.503	-1.02
GPT2 (UniProt Q8TD30)	-0.113	-0.0423

Taken from above.
Entry for NIPA2 (UniProt Q8N8Q9) under melting temperature shift (MBE1 concentration: 100 nM) [°C]: -0.754
Entry for GEMIN5 (UniProt Q8TEQ6) under melting temperature shift (MBE1 concentration: 100 nM) [°C]: 0.415
Entry for UniProt Q8N9E0 under melting temperature shift (MBE1 concentration: 1 uM) [°C]: -3.62
Entry for PTPMT1 (UniProt Q8WUK0) under melting temperature shift (MBE1 concentration: 1 uM) [°C]: 1.38
Entry for PLEKHO2 (UniProt Q8TD55) under melting temperature shift (MBE1 concentration: 100 nM) [°C]: 1.78

More results follow:

Target	melting temperature shift (MBE1 concentration: 1 uM) [°C]	melting temperature shift (MBE1 concentration: 100 nM) [°C]
UniProt Q8TEV9	-0.148	-0.349
UniProt Q8TDG4	12.4	0.47
FBXO22 (UniProt Q8NEZ5)	1.21	-0.441
UniProt Q8NDX5	-2.9	-2.79
NUP35 (UniProt Q8NFH5)	1.22	-0.195
TRAF3IP1 (UniProt Q8TDR0)	-1.12	-1.81
ITFG1 (UniProt Q8TB96)	0.855	-3.11
UniProt Q8TAP8	1.41	-2.14
LEO1 (UniProt Q8WVC0)	-0.186	-0.448
UniProt Q8NBM8	-0.183	-1.13
DLG5 (UniProt Q8TDM6)	-0.279	-2.47
UniProt Q8NI77	-0.718	-1.94
FAM172A (UniProt Q8WUF8)	0.623	0.837
RB1CC1 (UniProt Q8TDY2)	-0.983	0.586
POGLUT1 (UniProt Q8NBL1)	0.245	-0.771
GDPD1 (UniProt Q8N9F7)	0.983	1.04
SCCPDH (UniProt Q8NBX0)	0.651	-0.771
GTF3C2 (UniProt Q8WUA4)	-0.179	-0.109
STAG1 (UniProt Q8WVM7)	0.275	0.189
UniProt Q8WVN8	1.14	2.02
UniProt Q8WV24	-0.237	-0.288
IPO4 (UniProt Q8TEX9)	-0.278	-0.414
URGCP (UniProt Q8TCY9)	-1.05	-0.55
PLBD2 (UniProt Q8NHP8)	-2.72	-1.81
